Inconclusive results, whose numbers are uncertain, are shown with a selection of clear calls. For part of these data: Where the call is inconclusive, the potency comes from a doubtful curve fit. Calls of active or inactive are those of the source. Unless noted, cut-off not given; nearly all actives show AC50 up to about 26 µM.
Columns and labels:
[1] = growth inhibition of DIPG glioma cells, dose response, cell-based, SU-DIPG-XVII, MIPE5.0, CellTiter-Glo, qHTS (AID 1347060); details: SU-DIPG-XVII viability, CellTiter-Glo ATP luminescence;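 on AC50: cells exposed to compound for 48 hours before viability readout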
[2] = growth inhibition of DIPG glioma cells, dose response, cell-based, SU-DIPG-XIII, MIPE4.0, CellTiter-Glo, qHTS (AID 1347061; cut-off not given, nearly all actives have AC50 up to about 37 µM;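 further: cells exposed to compound for 48 hours before readout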); details: SU-DIPG-XIII viability, CellTiter-Glo ATP luminescence
[3] = growth inhibition of DIPG glioma cells, dose response, cell-based, JHH-DIPG-1, MIPE4.0, CellTiter-Glo, qHTS (AID 1347062; cut-off not given, nearly all actives have AC50 up to about 27 µM;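 on AC50: cells exposed to compound for two days before readout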); details: JHH-DIPG-1 viability, CellTiter-Glo ATP luminescence
[4] = growth inhibition of DIPG glioma cells, dose response, cell-based, SU-DIPG-XIII, MIPE5.0, CellTiter-Glo, qHTS (AID 1347064; cut-off not given, nearly all actives have AC50 up to about 23 µM;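 on AC50: cells exposed to compound for 48 hours before the viability read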); details: SU-DIPG-XIII viability, CellTiter-Glo ATP luminescence
[5] = viability loss in pontine glioma line – cell-based, SU-DIPG-XXV, MIPE5.0, CellTiter-Glo, qHTS, dose response (AID 1347065); details: CellTiter-Glo ATP luminescence;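 further: cells exposed to compound for 48 hours before ATP readout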
[6] = SU-DIPG-VI glioma cell viability, MIPE4.0 library, CellTiter-Glo luminescence, qHTS (AID 1347066; cut-off not given, nearly all actives have AC50 up to about 30 µM;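 further: cells exposed to compound for 48 hours before readout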); details: CellTiter-Glo ATP luminescence
[7] = JHH-DIPG-1 glioma cell viability, MIPE5.0 library, CellTiter-Glo luminescence, qHTS (AID 1347067); details: JHH-DIPG-1 glioma viability, CellTiter-Glo ATP luminescence;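 further: cells exposed to compound for 48 hours before readout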
[8] = SU-DIPG-XXV glioma cell viability, MIPE5.0 library, qHTS (AID 1347068; cut-off not given, nearly all actives have IC50 up to about 30 µM;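 on IC50: cells exposed to compound for 48 hours before viability readout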)
[9] = target: ATP-dependent translocase ABCB1 (Homo sapiens) (UniProt P08183); assay: MDR1 (ABCB1) efflux transporter inhibition, cell-based (AID 377; in the data active means fluorescence slope change above about 50%; inconclusive means mostly about 31% to 49%); details: MDR1-expressing cells, fluorescent substrate accumulation slope; stronger effect = higher value; concentration not given here
[10] = inhibitors of polyQ aggregate elongation, biochemical, solid-phase synthetic aggregates, QA3 (AID 1585; call rule not given here); details: biotin-polyQ incorporation, at 100 µM, stronger effect = higher value
[11] = polyglutamine aggregation reduction, turbidity readout, qthio, single concentration 25 µM screen (AID 1588; call rule not given here); details: at 25 µM, stronger effect = lower value
[12] = enhancers of SMN2 over SMN1 splicing, cell-based, SMN2/SMN1 luciferase reporters (AID 1598; call rule not given here); details: SMN2 vs SMN1 luciferase splicing reporter cells; at 10 µM; stronger effect = higher value
[13] = growth inhibition of DIPG glioma cells, dose response, cell-based, SU-DIPG-IV, MIPE4.0, CellTiter-Glo, qHTS (AID 1347063; cut-off not given, nearly all actives have AC50 up to about 30 µM;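 further: compound exposure lasted 48 hours before the viability readout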); details: SU-DIPG-IV viability, CellTiter-Glo ATP luminescence

Chains of the proteins cited; added tags and fusions are not shown.
UniProt P08183, whole entry, looked up: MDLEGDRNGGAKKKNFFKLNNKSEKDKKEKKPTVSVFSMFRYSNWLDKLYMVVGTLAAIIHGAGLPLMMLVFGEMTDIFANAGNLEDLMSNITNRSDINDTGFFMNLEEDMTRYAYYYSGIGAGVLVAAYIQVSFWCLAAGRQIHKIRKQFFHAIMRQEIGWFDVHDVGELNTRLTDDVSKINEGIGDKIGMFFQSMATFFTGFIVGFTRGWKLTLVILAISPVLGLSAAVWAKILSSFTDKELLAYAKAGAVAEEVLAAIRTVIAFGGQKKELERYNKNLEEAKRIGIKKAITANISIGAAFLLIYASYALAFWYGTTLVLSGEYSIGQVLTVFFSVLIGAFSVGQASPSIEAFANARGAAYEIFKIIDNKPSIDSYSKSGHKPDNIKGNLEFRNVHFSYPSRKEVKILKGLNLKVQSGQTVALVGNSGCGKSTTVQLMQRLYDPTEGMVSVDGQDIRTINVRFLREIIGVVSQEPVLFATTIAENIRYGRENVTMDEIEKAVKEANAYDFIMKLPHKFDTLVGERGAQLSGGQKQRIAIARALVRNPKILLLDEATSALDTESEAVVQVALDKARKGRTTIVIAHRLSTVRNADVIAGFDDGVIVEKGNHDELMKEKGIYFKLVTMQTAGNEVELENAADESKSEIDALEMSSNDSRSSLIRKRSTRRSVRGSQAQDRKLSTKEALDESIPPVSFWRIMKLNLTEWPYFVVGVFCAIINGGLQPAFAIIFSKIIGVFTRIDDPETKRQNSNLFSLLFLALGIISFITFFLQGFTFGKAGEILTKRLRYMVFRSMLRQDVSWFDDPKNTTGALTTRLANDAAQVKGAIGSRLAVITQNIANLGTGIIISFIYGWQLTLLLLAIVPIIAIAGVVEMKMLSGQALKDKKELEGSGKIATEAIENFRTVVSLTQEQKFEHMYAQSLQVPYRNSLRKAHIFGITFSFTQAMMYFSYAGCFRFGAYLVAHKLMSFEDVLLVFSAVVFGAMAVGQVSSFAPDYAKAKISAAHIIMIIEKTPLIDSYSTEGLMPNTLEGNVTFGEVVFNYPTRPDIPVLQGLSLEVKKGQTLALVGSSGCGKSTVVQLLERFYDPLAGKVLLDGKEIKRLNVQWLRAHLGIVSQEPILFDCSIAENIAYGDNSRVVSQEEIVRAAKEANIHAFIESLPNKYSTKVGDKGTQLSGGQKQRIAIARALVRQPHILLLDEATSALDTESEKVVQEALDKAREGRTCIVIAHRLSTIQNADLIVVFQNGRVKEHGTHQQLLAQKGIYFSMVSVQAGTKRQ

CCOC(=O)[C@H](CCc1ccccc1)N[C@@H](C)C(=O)N1[C@H](C(=O)O)C[C@@H]2CCC[C@@H]21
active: AC50 [2] 8.33 µM | AC50 [3] 16.6 µM | AC50 [6] 16.6 µM
inconclusive: AC50 [1] 0.00132 µM | AC50 [5] 0.00118 µM
inactive: outcome [4] | outcome [7]

CN(C)CC[C@H](CSc1ccccc1)Nc1ccc(S(=O)(=O)NC(=O)c2ccc(N3CCN(Cc4ccccc4-c4ccc(Cl)cc4)CC3)cc2)cc1[N+](=O)[O-]
active: AC50 [5] 0.934 µM | AC50 [6] 2.35 µM | IC50 [8] 13.2 µM
inconclusive: AC50 [1] 33.2 µM [cytotoxic] | AC50 [2] 5.9 µM [cytotoxic] | AC50 [3] 8.33 µM [cytotoxic] | AC50 [4] 0.105 µM [cytotoxic]

Clc1ccc(C(c2ccccc2Cl)C(Cl)Cl)cc1 (stereo unspecified)
active: AC50 [4] 18.6 µM | AC50 [6] 23.5 µM | AC50 [7] 20.9 µM
inactive: fluorescence slope change [9] 7.7%
inconclusive: inhibition [10] 3.82% | aggregation (% of control) [11] 98% | SMN2/SMN1 luciferase ratio [12] 0.98 | AC50 [1] 18.6 µM [cytotoxic] | AC50 [2] 0.00526 µM [cytotoxic] | AC50 [3] 37.2 µM [cytotoxic] | AC50 [5] 37.2 µM [cytotoxic] | IC50 [8] 26.3 µM [cytotoxic]

COc1ccc(-c2cc(=O)c3c(O)cc(O[C@@H]4O[C@H](CO[C@@H]5O[C@@H](C)[C@H](O)[C@@H](O)[C@H]5O)[C@@H](O)[C@H](O)[C@H]4O)cc3o2)cc1O
inactive: outcome [1] | outcome [3] | outcome [4] | outcome [5] | outcome [6] | outcome [7]
inconclusive: AC50 [2] 29.6 µM [cytotoxic]

CNC(=O)c1cc(COc2nnc(Nc3ccc(Cl)cc3)c3ccoc23)ccn1
active: AC50 [1] 16.6 µM | AC50 [7] 5.9 µM
inconclusive: AC50 [2] 0.0662 µM [cytotoxic] | AC50 [3] 26.4 µM [cytotoxic] | AC50 [4] 11.8 µM [cytotoxic] | AC50 [5] 4.17 µM [cytotoxic] | AC50 [6] 33.2 µM [cytotoxic] | IC50 [8] 20.9 µM [cytotoxic]

CC(O)(C#Cc1ccc2c(c1)N(c1nc(N)ncc1Cl)CC2)c1nccs1 (stereo unspecified)
inactive: outcome [6]
inconclusive: AC50 [1] 37.2 µM [cytotoxic] | AC50 [3] 20.9 µM [cytotoxic] | AC50 [4] 20.9 µM [cytotoxic] | IC50 [8] 37.2 µM [cytotoxic]
active: AC50 [2] 16.6 µM | AC50 [5] 13.2 µM

CCCCc1oc2ccc(NS(C)(=O)=O)cc2c1C(=O)c1ccc(OCCCN(CCCC)CCCC)cc1
active: AC50 [1] 13.2 µM | AC50 [2] 18.7 µM | AC50 [4] 11.8 µM | AC50 [6] 13.2 µM | IC50 [8] 10.5 µM
inconclusive: AC50 [3] 26.4 µM [cytotoxic] | AC50 [5] 10.5 µM [cytotoxic]

Cc1c(C(=O)NN2CCCCC2)nn(-c2ccc(Cl)cc2Cl)c1-c1ccc(Cl)cc1
inactive: outcome [8]
active: AC50 [2] 20.9 µM | AC50 [3] 16.6 µM
inconclusive: AC50 [1] 20.9 µM [cytotoxic] | AC50 [4] 37.2 µM [cytotoxic] | AC50 [5] 18.6 µM [cytotoxic] | AC50 [6] 37.2 µM [cytotoxic]

O=c1cc(N2CCOCC2)oc2c(-c3ccccc3)cccc12
inactive: outcome [2] | outcome [4]
inconclusive: AC50 [1] 23.5 µM [cytotoxic] | AC50 [3] 16.6 µM [cytotoxic] | AC50 [5] 20.9 µM [cytotoxic] | AC50 [6] 5.9 µM [cytotoxic] | AC50 [7] 16.6 µM [cytotoxic]

Cc1c(C)n(Cc2ccc(-c3ccccc3C(=O)O)cc2)c2ccc(C(=O)N[C@@H](C)c3ccc([N+](=O)[O-])cc3)cc12
inconclusive: AC50 [1] 26.3 µM [cytotoxic] | AC50 [2] 0.00372 µM [cytotoxic] | AC50 [3] 0.059 µM [cytotoxic] | AC50 [4] 18.6 µM [cytotoxic] | AC50 [5] 37.2 µM [cytotoxic] | AC50 [6] 0.0526 µM [cytotoxic] | AC50 [7] 20.9 µM [cytotoxic] | outcome [8]

COc1ccc(-c2c(-c3ccc(O)cc3O)n[nH]c2C)cc1
inactive: outcome [3]
inconclusive: AC50 [1] 26.3 µM [cytotoxic] | AC50 [2] 42.9 µM [cytotoxic] | AC50 [13] 67.9 µM [cytotoxic] | AC50 [7] 7.42 µM [cytotoxic]

Ordered by length of the SMILES (descending): some entries from above
Cc1c(C)n(Cc2ccc(-c3ccccc3C(=O)O)cc2)c2ccc(C(=O)N[C@@H](C)c3ccc([N+](=O)[O-])cc3)cc12
inconclusive: AC50 [1] 26.3 µM [cytotoxic] | AC50 [2] 0.00372 µM [cytotoxic] | AC50 [3] 0.059 µM [cytotoxic] | AC50 [4] 18.6 µM [cytotoxic] | AC50 [5] 37.2 µM [cytotoxic] | AC50 [6] 0.0526 µM [cytotoxic] | AC50 [7] 20.9 µM [cytotoxic] | outcome [8]

COc1ccc(-c2c(-c3ccc(O)cc3O)n[nH]c2C)cc1
inactive: outcome [3]
inconclusive: AC50 [1] 26.3 µM [cytotoxic] | AC50 [2] 42.9 µM [cytotoxic] | AC50 [13] 67.9 µM [cytotoxic] | AC50 [7] 7.42 µM [cytotoxic]

O=c1cc(N2CCOCC2)oc2c(-c3ccccc3)cccc12
inactive: outcome [2] | outcome [4]
inconclusive: AC50 [1] 23.5 µM [cytotoxic] | AC50 [3] 16.6 µM [cytotoxic] | AC50 [5] 20.9 µM [cytotoxic] | AC50 [6] 5.9 µM [cytotoxic] | AC50 [7] 16.6 µM [cytotoxic]

Following part:

CCCCCCOC(=O)NC(=N)c1ccc(NCc2nc3cc(C(=O)N(CCC(=O)OCC)c4ccccn4)ccc3n2C)cc1
active: AC50 [3] 26.4 µM | AC50 [6] 26.4 µM
inconclusive: AC50 [1] 37.2 µM [cytotoxic] | AC50 [2] 33.2 µM [cytotoxic] | AC50 [4] 23.5 µM [cytotoxic] | AC50 [5] 20.9 µM [cytotoxic] | AC50 [7] 37.2 µM [cytotoxic]

Oc1cc2c(cc1O)C1c3ccc(O)c(O)c3OCC1(O)C2 (stereo unspecified)
inactive: outcome [2]
inconclusive: AC50 [1] 20.9 µM [cytotoxic] | AC50 [3] 3.32 µM [cytotoxic] | AC50 [4] 16.6 µM [cytotoxic] | AC50 [5] 20.9 µM [cytotoxic] | AC50 [7] 0.934 µM [cytotoxic]

CCCCCCCCCCCCCC(=O)N[C@H](CO)[C@H](O)c1ccc([N+](=O)[O-])cc1
inactive: outcome [2]
active: AC50 [3] 2.96 µM | AC50 [5] 18.6 µM
inconclusive: AC50 [1] 29.5 µM [cytotoxic] | AC50 [4] 23.5 µM [cytotoxic] | AC50 [6] 37.2 µM [cytotoxic] | AC50 [7] 33.2 µM [cytotoxic] | IC50 [8] 37.2 µM [cytotoxic]

CN1CCN(c2cc(C(=O)Nc3ccc4c(c3)-c3c(c(C(N)=O)nn3-c3ccc(F)cc3)CC4)c(Cl)cn2)CC1
inconclusive: AC50 [1] 0.263 µM [cytotoxic] | AC50 [3] 33.2 µM [cytotoxic] | IC50 [8] 29.5 µM [cytotoxic]
active: AC50 [2] 9.35 µM | AC50 [4] 14.8 µM

O=S(=O)(NCCNC/C=C/c1ccc(Br)cc1)c1cccc2cnccc12
inconclusive: AC50 [1] 23.5 µM [cytotoxic] | AC50 [2] 14.8 µM [cytotoxic] | AC50 [3] 20.9 µM [cytotoxic] | AC50 [4] 33.2 µM [cytotoxic] | AC50 [6] 18.7 µM [cytotoxic]

CC(C)C[C@H](NC(=O)[C@H](Cc1ccccc1)NC(=O)c1cnccn1)B(O)O
inconclusive: AC50 [4] 0.0417 µM [cytotoxic]
active: AC50 [1] 0.0209 µM | AC50 [2] 2.09 µM | AC50 [3] 0.0209 µM | AC50 [6] 0.0264 µM | IC50 [8] 0.0263 µM

O=c1[nH]nc(OCCCc2ccc(Cl)cc2)c(NCc2cccnc2)c1Br
inconclusive: AC50 [1] 18.6 µM [cytotoxic] | AC50 [2] 26.4 µM [cytotoxic] | AC50 [4] 0.00105 µM | AC50 [5] 16.6 µM [cytotoxic] | AC50 [7] 18.6 µM [cytotoxic] | IC50 [8] 37.2 µM [cytotoxic]
active: AC50 [3] 23.5 µM

Cn1cc(C2=C(c3c4n(c5ccccc35)CCC(CN)C4)C(=O)NC2=O)c2ccccc21 (stereo unspecified)
active: AC50 [3] 13.2 µM | AC50 [6] 23.5 µM
inactive: outcome [7] | outcome [8]
inconclusive: AC50 [1] 5.39 µM [cytotoxic] | AC50 [2] 33.2 µM [cytotoxic] | AC50 [4] 6.05 µM [cytotoxic]

CN1N=C(N)c2cn([C@@H]3O[C@H](COP(=O)(O)O)[C@@H](O)[C@H]3O)c3ncnc1c23
inconclusive: AC50 [2] 1.32 µM [cytotoxic] | AC50 [3] 0.0743 µM [cytotoxic] | AC50 [7] 0.00105 µM | IC50 [8] 1.86 µM [cytotoxic]
active: AC50 [1] 0.417 µM | AC50 [4] 1.66 µM | AC50 [5] 0.105 µM

Cc1ccccc1C(=O)Nc1ccc(C(=O)N2CCCC(O)c3cc(Cl)ccc32)c(C)c1 (stereo unspecified)
inactive: outcome [1] | outcome [2] | outcome [7]
inconclusive: AC50 [3] 0.0209 µM | AC50 [4] 0.00105 µM

Cc1ccc(NC(=O)Nc2cc(C(F)(F)F)ccc2F)cc1Nc1ccc2c(c1)NC(=O)/C2=C\c1ccc[nH]1
active: AC50 [2] 18.7 µM | AC50 [3] 18.7 µM | AC50 [4] 8.33 µM | AC50 [7] 10.5 µM | IC50 [8] 9.34 µM
inconclusive: AC50 [1] 0.468 µM [cytotoxic]

CNC1CCC(N(Cc2cccc(-c3ccncc3)c2)C(=O)c2sc3ccccc3c2Cl)CC1 (stereo unspecified)
active: AC50 [3] 14.8 µM | AC50 [6] 18.7 µM | AC50 [7] 20.9 µM
inconclusive: AC50 [1] 26.3 µM [cytotoxic] | AC50 [2] 20.9 µM [cytotoxic] | AC50 [4] 20.9 µM [cytotoxic]

CCC(=O)N1CCN(c2ccc(-n3c(=O)ccc4cnc5ccc(-c6cnc7ccccc7c6)cc5c43)cc2C(F)(F)F)CC1
inconclusive: AC50 [3] 0.0235 µM [cytotoxic] | AC50 [6] 5.26 µM [cytotoxic] | AC50 [7] 0.0811 µM [cytotoxic] | IC50 [8] 3.23 µM [cytotoxic]
active: AC50 [1] 0.0456 µM | AC50 [2] 1.32 µM | AC50 [4] 0.162 µM

CCn1c(-c2nonc2N)nc2c(C#CC(C)(C)O)ncc(OC[C@H]3CCCNC3)c21
active: AC50 [2] 16.6 µM | AC50 [4] 2.63 µM | IC50 [8] 16.6 µM
inconclusive: AC50 [1] 16.6 µM [cytotoxic] | AC50 [3] 37.2 µM [cytotoxic] | AC50 [6] 6.62 µM [cytotoxic] | AC50 [7] 0.934 µM [cytotoxic]

— PubChem BioAssay
